# Experimental data taken from paper PMC10480535.
# Amino acid sequences for entries named in this document (tags omitted).
# UniProt Q96HP0: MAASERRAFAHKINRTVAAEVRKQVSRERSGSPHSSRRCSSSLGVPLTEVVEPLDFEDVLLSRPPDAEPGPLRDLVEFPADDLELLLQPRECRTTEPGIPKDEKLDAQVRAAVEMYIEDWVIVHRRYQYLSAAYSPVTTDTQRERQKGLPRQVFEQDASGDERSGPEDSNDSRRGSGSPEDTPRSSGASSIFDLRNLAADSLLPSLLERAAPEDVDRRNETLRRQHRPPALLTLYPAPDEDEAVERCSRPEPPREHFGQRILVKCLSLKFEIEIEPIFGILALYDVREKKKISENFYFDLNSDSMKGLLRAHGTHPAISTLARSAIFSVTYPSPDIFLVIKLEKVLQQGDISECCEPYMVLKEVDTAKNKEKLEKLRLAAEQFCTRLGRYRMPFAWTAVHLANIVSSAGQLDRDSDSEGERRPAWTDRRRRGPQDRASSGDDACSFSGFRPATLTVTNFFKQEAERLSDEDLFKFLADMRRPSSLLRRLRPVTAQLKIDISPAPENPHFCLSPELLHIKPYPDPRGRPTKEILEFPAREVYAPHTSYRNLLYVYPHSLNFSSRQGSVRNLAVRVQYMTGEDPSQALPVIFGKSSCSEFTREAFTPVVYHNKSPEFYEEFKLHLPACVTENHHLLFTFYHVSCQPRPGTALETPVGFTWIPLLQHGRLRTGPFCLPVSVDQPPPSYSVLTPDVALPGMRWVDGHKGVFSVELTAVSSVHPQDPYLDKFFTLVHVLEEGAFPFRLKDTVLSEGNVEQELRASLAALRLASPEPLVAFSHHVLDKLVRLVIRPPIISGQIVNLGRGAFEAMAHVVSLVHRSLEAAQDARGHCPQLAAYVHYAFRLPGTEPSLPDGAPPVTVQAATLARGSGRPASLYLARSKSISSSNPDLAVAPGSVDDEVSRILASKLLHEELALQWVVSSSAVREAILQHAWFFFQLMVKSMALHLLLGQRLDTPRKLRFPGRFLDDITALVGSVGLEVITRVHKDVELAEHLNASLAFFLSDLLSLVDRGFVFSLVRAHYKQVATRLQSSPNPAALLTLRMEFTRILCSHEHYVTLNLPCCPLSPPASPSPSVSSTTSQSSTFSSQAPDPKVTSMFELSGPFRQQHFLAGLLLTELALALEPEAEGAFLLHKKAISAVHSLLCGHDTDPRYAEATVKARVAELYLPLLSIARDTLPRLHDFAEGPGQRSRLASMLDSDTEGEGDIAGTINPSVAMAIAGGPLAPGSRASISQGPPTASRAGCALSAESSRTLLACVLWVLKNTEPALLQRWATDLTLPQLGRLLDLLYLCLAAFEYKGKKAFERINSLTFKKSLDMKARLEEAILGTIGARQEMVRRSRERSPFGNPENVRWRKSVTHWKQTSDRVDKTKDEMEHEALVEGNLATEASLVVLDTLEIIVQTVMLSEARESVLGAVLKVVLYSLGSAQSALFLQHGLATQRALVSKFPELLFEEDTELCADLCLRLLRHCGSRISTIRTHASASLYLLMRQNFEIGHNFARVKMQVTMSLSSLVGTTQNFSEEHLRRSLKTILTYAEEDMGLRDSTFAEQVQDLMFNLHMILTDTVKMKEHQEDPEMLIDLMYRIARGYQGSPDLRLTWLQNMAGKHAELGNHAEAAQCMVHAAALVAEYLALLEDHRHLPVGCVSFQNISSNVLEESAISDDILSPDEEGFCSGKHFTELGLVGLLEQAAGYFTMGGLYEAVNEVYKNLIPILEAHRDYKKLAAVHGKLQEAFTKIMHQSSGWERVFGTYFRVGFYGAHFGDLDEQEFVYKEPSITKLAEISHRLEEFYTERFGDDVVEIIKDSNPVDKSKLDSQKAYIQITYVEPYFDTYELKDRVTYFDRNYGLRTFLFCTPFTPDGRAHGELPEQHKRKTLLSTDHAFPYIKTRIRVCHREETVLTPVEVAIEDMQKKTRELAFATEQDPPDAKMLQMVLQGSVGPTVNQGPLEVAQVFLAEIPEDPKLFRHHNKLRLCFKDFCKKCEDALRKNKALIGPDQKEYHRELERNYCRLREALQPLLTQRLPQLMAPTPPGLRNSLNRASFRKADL
# UniProt Q8NF50: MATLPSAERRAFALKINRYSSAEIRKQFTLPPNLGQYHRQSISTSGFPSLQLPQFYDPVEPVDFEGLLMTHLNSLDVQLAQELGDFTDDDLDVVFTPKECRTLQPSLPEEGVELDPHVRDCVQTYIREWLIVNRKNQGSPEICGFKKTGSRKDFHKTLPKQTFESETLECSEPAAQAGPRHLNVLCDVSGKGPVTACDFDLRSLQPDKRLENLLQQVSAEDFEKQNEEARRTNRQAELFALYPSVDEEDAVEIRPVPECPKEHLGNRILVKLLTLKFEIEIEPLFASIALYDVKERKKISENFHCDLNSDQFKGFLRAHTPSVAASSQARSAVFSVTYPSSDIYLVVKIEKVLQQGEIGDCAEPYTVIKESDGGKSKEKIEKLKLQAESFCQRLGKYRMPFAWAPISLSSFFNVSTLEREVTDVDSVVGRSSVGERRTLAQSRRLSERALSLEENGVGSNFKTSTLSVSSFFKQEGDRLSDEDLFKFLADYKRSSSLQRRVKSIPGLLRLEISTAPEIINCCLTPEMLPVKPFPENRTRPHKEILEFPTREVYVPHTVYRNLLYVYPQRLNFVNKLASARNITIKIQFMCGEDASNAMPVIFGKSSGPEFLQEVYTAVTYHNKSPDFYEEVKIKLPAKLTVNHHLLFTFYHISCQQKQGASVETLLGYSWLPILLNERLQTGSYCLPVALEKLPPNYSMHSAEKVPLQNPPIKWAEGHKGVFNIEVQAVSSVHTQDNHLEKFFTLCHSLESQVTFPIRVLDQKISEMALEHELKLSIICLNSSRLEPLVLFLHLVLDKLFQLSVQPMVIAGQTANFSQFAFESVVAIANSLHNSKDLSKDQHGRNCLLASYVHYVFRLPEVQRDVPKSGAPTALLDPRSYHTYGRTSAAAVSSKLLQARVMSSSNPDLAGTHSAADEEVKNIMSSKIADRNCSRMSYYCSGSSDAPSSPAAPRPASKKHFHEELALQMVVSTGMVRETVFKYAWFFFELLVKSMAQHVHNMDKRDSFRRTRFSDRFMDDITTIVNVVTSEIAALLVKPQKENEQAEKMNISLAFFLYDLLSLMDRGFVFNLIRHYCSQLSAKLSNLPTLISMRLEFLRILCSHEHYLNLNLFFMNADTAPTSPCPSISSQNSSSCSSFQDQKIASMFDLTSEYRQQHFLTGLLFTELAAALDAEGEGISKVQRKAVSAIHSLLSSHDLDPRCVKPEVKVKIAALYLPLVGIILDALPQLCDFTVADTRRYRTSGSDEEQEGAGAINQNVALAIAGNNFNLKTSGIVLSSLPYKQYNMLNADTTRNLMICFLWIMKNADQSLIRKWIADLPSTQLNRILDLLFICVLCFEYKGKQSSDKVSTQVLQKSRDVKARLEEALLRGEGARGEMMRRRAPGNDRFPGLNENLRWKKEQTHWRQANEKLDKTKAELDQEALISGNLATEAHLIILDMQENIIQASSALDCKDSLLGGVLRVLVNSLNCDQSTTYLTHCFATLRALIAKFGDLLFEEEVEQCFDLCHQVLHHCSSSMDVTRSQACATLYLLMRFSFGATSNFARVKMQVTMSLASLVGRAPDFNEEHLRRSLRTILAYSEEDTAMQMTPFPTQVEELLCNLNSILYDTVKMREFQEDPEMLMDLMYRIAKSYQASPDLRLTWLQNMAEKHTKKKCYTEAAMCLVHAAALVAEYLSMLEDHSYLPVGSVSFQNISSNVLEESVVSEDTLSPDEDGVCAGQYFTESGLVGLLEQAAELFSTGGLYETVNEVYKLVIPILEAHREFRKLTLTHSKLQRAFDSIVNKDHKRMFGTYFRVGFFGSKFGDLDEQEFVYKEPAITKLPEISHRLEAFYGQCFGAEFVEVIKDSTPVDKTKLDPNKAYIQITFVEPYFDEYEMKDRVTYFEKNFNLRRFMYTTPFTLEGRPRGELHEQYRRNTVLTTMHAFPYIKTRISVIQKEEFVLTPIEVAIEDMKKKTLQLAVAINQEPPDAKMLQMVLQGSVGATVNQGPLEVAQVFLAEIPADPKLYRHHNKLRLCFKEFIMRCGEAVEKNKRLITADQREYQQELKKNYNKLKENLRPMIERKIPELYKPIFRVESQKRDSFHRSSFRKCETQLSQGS
# UniProt O60934: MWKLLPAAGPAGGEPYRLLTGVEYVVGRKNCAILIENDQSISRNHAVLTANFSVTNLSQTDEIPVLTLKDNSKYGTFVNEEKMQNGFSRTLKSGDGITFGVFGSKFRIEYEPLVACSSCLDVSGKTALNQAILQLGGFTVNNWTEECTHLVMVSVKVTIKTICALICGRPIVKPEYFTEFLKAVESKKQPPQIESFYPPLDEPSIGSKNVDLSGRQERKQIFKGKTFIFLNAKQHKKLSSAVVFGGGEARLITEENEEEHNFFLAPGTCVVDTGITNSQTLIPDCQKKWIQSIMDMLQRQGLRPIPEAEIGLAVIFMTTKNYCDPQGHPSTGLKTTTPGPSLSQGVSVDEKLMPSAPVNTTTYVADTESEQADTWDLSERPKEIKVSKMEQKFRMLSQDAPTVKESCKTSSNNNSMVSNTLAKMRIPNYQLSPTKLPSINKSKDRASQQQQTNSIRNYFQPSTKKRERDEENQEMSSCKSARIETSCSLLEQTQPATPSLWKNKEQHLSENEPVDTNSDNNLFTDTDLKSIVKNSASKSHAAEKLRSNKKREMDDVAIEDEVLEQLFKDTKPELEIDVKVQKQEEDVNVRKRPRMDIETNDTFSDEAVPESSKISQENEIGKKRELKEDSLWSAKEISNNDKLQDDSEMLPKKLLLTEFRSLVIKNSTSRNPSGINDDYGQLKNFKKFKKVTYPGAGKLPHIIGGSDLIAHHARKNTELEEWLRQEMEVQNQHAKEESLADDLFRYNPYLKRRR
# UniProt Q9Y2H1: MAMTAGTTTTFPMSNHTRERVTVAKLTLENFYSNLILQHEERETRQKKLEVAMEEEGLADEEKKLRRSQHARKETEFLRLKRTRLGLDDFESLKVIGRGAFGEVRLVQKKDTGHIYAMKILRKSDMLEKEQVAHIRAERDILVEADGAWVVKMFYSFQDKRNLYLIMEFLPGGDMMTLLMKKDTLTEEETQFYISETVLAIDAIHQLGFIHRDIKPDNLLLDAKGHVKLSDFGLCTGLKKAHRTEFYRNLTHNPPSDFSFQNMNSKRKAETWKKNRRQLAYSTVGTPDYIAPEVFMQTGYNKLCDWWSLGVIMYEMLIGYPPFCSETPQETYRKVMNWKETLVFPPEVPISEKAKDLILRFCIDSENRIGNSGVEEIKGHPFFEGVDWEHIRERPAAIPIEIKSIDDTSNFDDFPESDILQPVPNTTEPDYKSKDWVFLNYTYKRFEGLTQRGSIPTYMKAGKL
# These are yes or no findings as the source states them, for the method shown. Binding seen in cells or lysates may run through a third protein. A yes stands for co-enrichment or nearness to the bait. Other partners may have been found. Tags and fused reporters may be left off the sequences shown.
# T1: BirA*-FLAG-MOB1A (human) (UniProt Q9H8S9)
# T1 sequence: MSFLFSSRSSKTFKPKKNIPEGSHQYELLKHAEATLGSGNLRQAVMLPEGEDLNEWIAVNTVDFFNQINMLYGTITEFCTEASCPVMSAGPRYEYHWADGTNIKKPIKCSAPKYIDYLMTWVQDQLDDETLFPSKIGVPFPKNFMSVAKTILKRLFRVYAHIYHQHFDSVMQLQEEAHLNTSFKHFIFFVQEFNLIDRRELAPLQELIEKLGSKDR
# T2: BirA*-FLAG-MOB1B (human) (UniProt Q7L9L4)
# T2 sequence: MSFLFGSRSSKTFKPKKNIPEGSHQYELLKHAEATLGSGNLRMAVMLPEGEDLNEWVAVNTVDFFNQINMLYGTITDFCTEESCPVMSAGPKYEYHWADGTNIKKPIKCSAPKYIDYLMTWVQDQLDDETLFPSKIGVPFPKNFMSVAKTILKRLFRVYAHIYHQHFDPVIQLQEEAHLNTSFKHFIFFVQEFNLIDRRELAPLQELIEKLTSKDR
# T3: BirA*-FLAG-MOB2 (human) (UniProt Q70IA6)
# T3 sequence: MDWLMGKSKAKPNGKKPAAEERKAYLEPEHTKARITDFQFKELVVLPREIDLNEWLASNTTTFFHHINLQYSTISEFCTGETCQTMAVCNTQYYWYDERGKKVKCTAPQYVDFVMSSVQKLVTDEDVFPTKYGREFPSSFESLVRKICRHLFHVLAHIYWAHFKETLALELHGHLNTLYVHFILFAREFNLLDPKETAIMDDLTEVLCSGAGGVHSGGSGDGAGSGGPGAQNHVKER
# What was measured:
# Assay in all cases: proximity labelling; BioID: BirA*-FLAG-MOB baits in tetracycline-inducible HEK293 and HeLa Flp-In T-REx cells; tetracycline 1 ug/ml and biotin 50 uM for 24 h; mass spectrometry; SAINTexpress against BirA*-FLAG and BirA*-FLAG-EGFP controls, BFDR <=0.01; the two cell lines' datasets combined for the MoSS score
# [1] = target: T1, BirA*-FLAG-MOB1A (human)
# [2] = target: T2, BirA*-FLAG-MOB1B (human)
# [3] = target: T3, BirA*-FLAG-MOB2 (human)
Molecule,binding [1],binding [2],binding [3]
DOCK6 (from UniProt Q96HP0 1-2047),binds,binds,
DOCK8 (from UniProt Q8NF50 1-2099),binds,binds,
NBN (from UniProt O60934 1-754),,,binds
"LRCH2 (protein, UniProt Q5VUJ6 1-765) MAASQGGGGNSGGGGCGGGGSSGGCGTAGGGGGGAGGGGGGGGGTLVVPIPVPTLFGQPFPNGPPWNPGSLQPQHTVRSLDRALEEAGSSGILSLSGRKLRDFPGSGYDLTDTTQADLSRNRFTEIPSDVWLFAPLETLNLYHNCIKTIPEAIKNLQMLTYLNISRNLLSTLPKYLFDLPLKVLVVSNNKLVSIPEEIGKLKDLMELDISCNEIQVLPQQMGKLHSLRELNIRRNNLHVLPDELGDLPLVKLDFSCNKVTEIPVCYRKLHHLQVIILDNNPLQVPPAQICLKGKVHIFKYLNIQACCRMDKKPDSLDLPSLSKRMPSQPLTDSMEDFYPNKNHGPDSGIGSDNGEKRLSTTEPSDDDTVSLHSQVSESNREQTSRNDSHIIGSKTDSQKDQEVYDFVDPNTEDVAVPEQGNAHIGSFVSFFKGKEKCSEKSRKNEELGDEKRLEKEQLLAEEEDDDLKEVTDLRKIAAQLLQQEQKNRILNHSTSVMRNKPKQTVECEKSVSADEVNSPLSPLTWQPLENQKDQIDEQPWPESHPIIWQSEERRRSKQIRKEYFKYKSMRKSSSGNENDEQDSDNANMSTQSPVSSEEYDRTDGFSHSPFGLKPRSAFSRSSRQEYGAADPGFTMRRKMEHLREEREQIRQLRNNLESRLKVILPDDIGAALMDGVVLCHLANHIRPRSVASIHVPSPAVPKLSMAKCRRNVENFLDACKKLGVSQERLCLPHHILEERGLVKVGVTVQALLELPTTKASQLSVA",binds,binds,
"LRCH3 (protein, UniProt Q96II8 1-777) MAAAGLVAVAAAAEYSGTVASGGNLPGVHCGPSSGAGPGFGPGSWSRSLDRALEEAAVTGVLSLSGRKLREFPRGAANHDLTDTTRADLSRNRLSEIPIEACHFVSLENLNLYQNCIRYIPEAILNLQALTFLNISRNQLSTLPVHLCNLPLKVLIASNNKLVSLPEEIGHLRHLMELDVSCNEIQTIPSQIGNLEALRDLNVRRNHLVHLPEELAELPLIRLDFSCNKITTIPVCYRNLRHLQTITLDNNPLQSPPAQICIKGKVHIFKYLNIQACKIAPDLPDYDRRPLGFGSCHEELYSSRPYGALDSGFNSVDSGDKRWSGNEPTDEFSDLPLRVAEITKEQRLRRESQYQENRGSLVVTNGGVEHDLDQIDYIDSCTAEEEEAEVRQPKGPDPDSLSSQFMAYIEQRRISHEGSPVKPVAIREFQKTEDMRRYLHQNRVPAEPSSLLSLSASHNQLSHTDLELHQRREQLVERTRREAQLAALQYEEEKIRTKQIQRDAVLDFVKQKASQSPQKQHPLLDGVDGECPFPSRRSQHTDDSALCMSLSGLNQVGCAATLPHSSAFTPLKSDDRPNALLSSPATETVHHSPAYSFPAAIQRNQPQRPESFLFRAGVRAETNKGHASPLPPSAAPTTDSTDSITGQNSRQREEELELIDQLRKHIEYRLKVSLPCDLGAALTDGVVLCHLANHVRPRSVPSIHVPSPAVPKLTMAKCRRNVENFLEACRKIGVPQEQLCLPLHILEEKGLSQVAVTVQALLELAPPKQQQHQLSAV",binds,binds,
"LRCH1 (protein, UniProt Q9Y2L9 1-728) MATPGSEPQPFVPALSVATLHPLHHPHHHHHHHQHHGGTGAPGGAGGGGGGSGGFNLPLNRGLERALEEAANSGGLNLSARKLKEFPRTAAPGHDLSDTVQADLSKNRLVEVPMELCHFVSLEILNLYHNCIRVIPEAIVNLQMLTYLNLSRNQLSALPACLCGLPLKVLIASNNKLGSLPEEIGQLKQLMELDVSCNEITALPQQIGQLKSLRELNVRRNYLKVLPQELVDLSLVKFDFSCNKVLVIPICFREMKQLQVLLLENNPLQSPPAQICTKGKVHIFKYLSIQACQIKTADSLYLHTMERPHLHQHVEDGKKDSDSGVGSDNGDKRLSATEPSDEDTVSLNVPMSNIMEEEQIIKEDSCHRLSPVKGEFHQEFQPEPSLLGDSTNSGEERDQFTDRADGLHSEFMNYKARAEDCEELLRIEEDVHWQTEGIISSSKDQDMDIAMIEQLREAVDLLQDPNGLSTDITERSVLNLYPMGSAEALELQDSALNGQIQLETSPVCEVQSDLTLQSNGSQYSPNEIRENSPAVSPTTNSTAPFGLKPRSVFLRPQRNLESIDPQFTIRRKMEQMREEKELVEQLRESIEMRLKVSLHEDLGAALMDGVVLCHLVNHIRPRSVASIHVPSPAVPKLSMAKCRRNVENFLEACRKLGVPEADLCSPCDILQLDFRHIRKTVDTLLALGEKAPPPTSALRSRDLIGFCLVHILFIVLVYITYHWNALSA",binds,binds,

# Now from value to molecule:
binding [1],binding [2],binding [3],Molecule
,,binds,RAD50 (from UniProt Q92878 1-1312)
,,binds,STK38L (from UniProt Q9Y2H1 1-464)
,,binds,valosin-containing protein (from UniProt P55072 1-806)
,,binds,"Periphilin 1 (protein, UniProt Q8NEY8 1-458) MWSEGRYEYERIPRERAPPRSHPSDGYNRLVNIVPKKPPLLDRPGEGSYNRYYSHVDYRDYDEGRSFSHDRRSGPPHRGDESGYRWTRDDHSASRQPEYRDMRDGFRRKSFYSSHYARERSPYKRDNTFFRESPVGRKDSPHSRSGSSVSSRSYSPERSKSYSFHQSQHRKSVRPGASYKRQNEGNPERDKERPVQSLKTSRDTSPSSGSAVSSSKVLDKPSRLTEKELAEAASKWAAEKLEKSDESNLPEISEYEAGSTAPLFTDQPEEPESNTTHGIELFEDSQLTTRSKAIASKTKEIEQVYRQDCETFGMVVKMLIEKDPSLEKSIQFALRQNLHEIESAGQTWQQVPPVRNTEMDHDGTPENEGEETAQSAPQPPQAPQPLQPRKKRVRRTTQLRRTTGAPDITWGMLKKTTQEAERILLRTQTPFTPENLFLAMLSVVHCNSRKDVKPENKQ"
,,binds,"NSFL1C (protein, UniProt Q9UNZ2 1-370) MAAERQEALREFVAVTGAEEDRARFFLESAGWDLQIALASFYEDGGDEDIVTISQATPSSVSRGTAPSDNRVTSFRDLIHDQDEDEEEEEGQRFYAGGSERSGQQIVGPPRKKSPNELVDDLFKGAKEHGAVAVERVTKSPGETSKPRPFAGGGYRLGAAPEEESAYVAGEKRQHSSQDVHVVLKLWKSGFSLDNGELRSYQDPSNAQFLESIRRGEVPAELRRLAHGGQVNLDMEDHRDEDFVKPKGAFKAFTGEGQKLGSTAPQVLSTSSPAQQAENEAKASSSILIDESEPTTNIQIRLADGGRLVQKFNHSHRISDIRLFIVDARPAMAATSFILMTTFPNKELADESQTLKEANLLNAVIVQRLT"
binds,binds,,"PTPN14 (protein, UniProt Q15678 1-1187) MPFGLKLRRTRRYNVLSKNCFVTRIRLLDSNVIECTLSVESTGQECLEAVAQRLELRETHYFGLWFLSKSQQARWVELEKPLKKHLDKFANEPLLFFGVMFYVPNVSWLQQEATRYQYYLQVKKDVLEGRLRCTLDQVIRLAGLAVQADFGDYNQFDSQDFLREYVLFPMDLALEEAVLEELTQKVAQEHKAHSGILPAEAELMYINEVERLDGFGQEIFPVKDNHGNCVHLGIFFMGIFVRNRIGRQAVIYRWNDMGNITHNKSTILVELINKEETALFHTDDIENAKYISRLFATRHKFYKQNKICTEQSNSPPPIRRQPTWSRSSLPRQQPYILPPVHVQCGEHYSETHTSQDSIFHGNEEALYCNSHNSLDLNYLNGTVTNGSVCSVHSVNSLNCSQSFIQASPVSSNLSIPGSDIMRADYIPSHRHSAIIVPSYRPTPDYETVMRQMKRGILHTDSQSQSLRNLNIINTHAYNQPEDLVYSQPEMRERHPYTVPYGPQGVYSNKLVSPSDQRNPKNNVVPSKPGASAISHTVSTPELANMQLQGSHNYSTAHMLKNYLFRPPPPYPRPRPATSTPDLASHRHKYVSGSSPDLVTRKVQLSVKTFQEDSSPVVHQSLQEVSEPLTATKHHGTVNKRHSLEVMNSMVRGMEAMTLKSLHLPMARRNTLREQGPPEEGSGSHEVPQLPQYHHKKTFSDATMLIHSSESEEEEEEAPESVPQIPMLREKMEYSAQLQAALARIPNKPPPEYPGPRKSVSNGALRQDQASLPPAMARARVLRHGPAKAISMSRTDPPAVNGASLGPSISEPDLTSVKERVKKEPVKERPVSEMFSLEDSIIEREMMIRNLEKQKMAGLEAQKRPLMLAALNGLSVARVSGREENRVDATRVPMDERFRTLKKKLEEGMVFTEYEQIPKKKANGIFSTAALPENAERSRIREVVPYEENRVELIPTKENNTGYINASHIKVVVGGAEWHYIATQGPLPHTCHDFWQMVWEQGVNVIAMVTAEEEGGRTKSHRYWPKLGSKHSSATYGKFKVTTKFRTDSVCYATTGLKVKHLLSGQERTVWHLQYTDWPDHGCPEDVQGFLSYLEEIQSVRRHTNSMLEGTKNRHPPIVVHCSAGVGRTGVLILSELMIYCLEHNEKVEVPMMLRLLREQRMFMIQTIAQYKFVYQVLIQFLQNSRLI"
,,binds,"TXNL1 (protein, UniProt O43396 1-289) MVGVKPVGSDPDFQPELSGAGSRLAVVKFTMRGCGPCLRIAPAFSSMSNKYPQAVFLEVDVHQCQGTAATNNISATPTFLFFRNKVRIDQYQGADAVGLEEKIKQHLENDPGSNEDTDIPKGYMDLMPFINKAGCECLNESDEHGFDNCLRKDTTFLESDCDEQLLITVAFNQPVKLYSMKFQGPDNGQGPKYVKIFINLPRSMDFEEAERSEPTQALELTEDDIKEDGIVPLRYVKFQNVNSVTIFVQSNQGEEETTRISYFTFIGTPVQATNMNDFKRVVGKKGESH"
